{"source": "PubChem BioAssay (NCATS)", "note": "This is one part of the list. Shown are side measurements of this screen, not its main read-out; they come without a call. For part of these data: Compounds called inactive in the main read-out are mostly missing here. Words in brackets tell the shape of the fitted curve; partial curves, single points and poor fits give uncertain potencies.", "data": [{"test": "NCATS anti-infectives library activity on the primary C. elegans qHTS viability assay (AID 1745855)", "settings": "C. elegans worm area imaging, day 7; measured here: worm number, day 3", "procedure,_shortened": "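Titration-based screen in worms: eggs hatched overnight in M9, L1 larvae fed TOP10 capsules in S medium with compound, incubated 21 °C for 7 days; fluorescent objects gated by size and intensity at days 0, 3 and 7.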", "values": [{"smiles": "CCCCCCCCCCCCCCCCn1cc[n+](Cc2ccccc2)c1C", "AC50": "230 nM [falling, partial curve, poor fit]"}, {"smiles": "Cc1nc(N(C)C(=O)Cc2ccc(-c3ccccn3)cc2)sc1S(N)(=O)=O", "AC50": "16300 nM [falling, partial curve]"}, {"smiles": "CC(C)C[C@H](NC(=O)CNC(=O)c1cc(Cl)ccc1Cl)B1OC(=O)C(CC(=O)O)(CC(=O)O)O1", "AC50": "1290 nM [falling, full curve, poor fit]"}]}, {"test": "qHTS drug screen for cell cycle checkpoint inhibitors in PARPi-resistant BRCA-mutant ovarian cancer cell lines. (AID 1963452)", "settings": "PEO1/OlaR viability, CellTiter-Glo luminescence, 96 h; measured here: PEO1 parental viability", "procedure,_shortened": "(§1)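 PEO1, PEO4 and PEO1/OlaR ovarian cancer cells, 600 per well, exposed 96 h at 37C to a dilution series. Viability read by CellTiter-Glo luminescence, normalized to DMSO and empty wells; activity summarized as Z-AUC.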", "values": [{"smiles": "Cc1cccc(/C=N/Nc2cc(N3CCOCC3)nc(OCCc3ccccn3)n2)c1", "AC50": "7760 nM [falling, partial curve]"}, {"smiles": "CC(=O)Nc1cccc(-n2c(=O)n(C3CC3)c(=O)c3c(Nc4ccc(I)cc4F)n(C)c(=O)c(C)c32)c1", "AC50": "54.9 nM [falling, full curve]"}, {"smiles": "O=C(/C=C\\n1cnc(-c2cc(C(F)(F)F)cc(C(F)(F)F)c2)n1)NNc1cnccn1", "AC50": "49 nM [falling, full curve]"}, {"smiles": "CC(C)C[C@H](NC(=O)[C@H](Cc1ccccc1)NC(=O)c1cnccn1)B(O)O", "AC50": "8.7 nM [falling, full curve]"}, {"smiles": "O=C(/C=C\\n1cnc(-c2cc(C(F)(F)F)cc(C(F)(F)F)c2)n1)NNc1ccccn1", "AC50": "871 nM [falling, full curve]"}, {"smiles": "CC(=O)N1c2ccc(-c3ccc(C(=O)O)cc3)cc2[C@H](Nc2ccc(Cl)cc2)C[C@@H]1C", "AC50": "776 nM [falling, full curve]"}, {"smiles": "COc1c(C)c2c(c(O)c1C/C=C(\\C)CCC(=O)OCCN1CCOCC1)C(=O)OC2", "AC50": "5490 nM [falling, partial curve]"}, {"smiles": "CC[C@@]1([C@@H]2O[C@@H]([C@H]3O[C@@](O)(CO)[C@H](C)C[C@@H]3C)C[C@@H]2C)CC[C@H]([C@]2(C)CCC3(C[C@H](O)[C@@H](C)[C@@H]([C@@H](C)[C@@H](OC)[C@H](C)C(=O)O)O3)O2)O1", "note": "(some centres not stated)", "AC50": "84.9 nM [falling, full curve]"}, {"smiles": "C=CC[C@@H]1/C=C(\\C)C[C@H](C)C[C@H](OC)[C@H]2O[C@@](O)(C(=O)C(=O)N3CCCC[C@H]3C(=O)O[C@H](/C(C)=C/[C@@H]3CC[C@@H](O)[C@H](OC)C3)[C@H](C)[C@@H](O)CC1=O)[C@H](C)C[C@@H]2OC", "AC50": "13800 nM [falling, single point]"}, {"smiles": "CC(C)C[C@H](NC(=O)CNC(=O)c1cc(Cl)ccc1Cl)B(O)O", "AC50": "87.1 nM [falling, full curve]"}, {"smiles": "Cc1noc2c1-c1ccccc1C(c1ccc(Cl)cc1)=N[C@H]2CC(N)=O", "AC50": "4360 nM [falling, partial curve]"}, {"smiles": "CC(C)C[C@H](NC(=O)[C@@H](NC(=O)c1cccc(-c2ccccc2)n1)[C@@H](C)O)B(O)O", "AC50": "30.1 nM [falling, full curve]"}]}, {"test": "qHTS drug screen for cell cycle checkpoint inhibitors in PARPi-resistant BRCA-mutant ovarian cancer cell lines. (AID 1963452)", "settings": "PEO1/OlaR viability, CellTiter-Glo luminescence, 96 h; measured here: PEO4 viability", "procedure,_shortened": "as §1", "values": [{"smiles": "Cc1cccc(/C=N/Nc2cc(N3CCOCC3)nc(OCCc3ccccn3)n2)c1", "AC50": "11000 nM [falling, partial curve]"}, {"smiles": "CC(=O)Nc1cccc(-n2c(=O)n(C3CC3)c(=O)c3c(Nc4ccc(I)cc4F)n(C)c(=O)c(C)c32)c1", "AC50": "13.8 nM [falling, full curve]"}, {"smiles": "O=C(/C=C\\n1cnc(-c2cc(C(F)(F)F)cc(C(F)(F)F)c2)n1)NNc1cnccn1", "AC50": "49 nM [falling, full curve]"}, {"smiles": "CC(C)C[C@H](NC(=O)[C@H](Cc1ccccc1)NC(=O)c1cnccn1)B(O)O", "AC50": "3.9 nM [falling, full curve]"}, {"smiles": "O=C(/C=C\\n1cnc(-c2cc(C(F)(F)F)cc(C(F)(F)F)c2)n1)NNc1ccccn1", "AC50": "977 nM [falling, full curve]"}, {"smiles": "CC(=O)N1c2ccc(-c3ccc(C(=O)O)cc3)cc2[C@H](Nc2ccc(Cl)cc2)C[C@@H]1C", "AC50": "174 nM [falling, full curve]"}, {"smiles": "COc1c(C)c2c(c(O)c1C/C=C(\\C)CCC(=O)OCCN1CCOCC1)C(=O)OC2", "AC50": "7760 nM [falling, partial curve]"}, {"smiles": "CC[C@@]1([C@@H]2O[C@@H]([C@H]3O[C@@](O)(CO)[C@H](C)C[C@@H]3C)C[C@@H]2C)CC[C@H]([C@]2(C)CCC3(C[C@H](O)[C@@H](C)[C@@H]([C@@H](C)[C@@H](OC)[C@H](C)C(=O)O)O3)O2)O1", "note": "(some centres not stated)", "AC50": "301 nM [falling, full curve]"}, {"smiles": "C=CC[C@@H]1/C=C(\\C)C[C@H](C)C[C@H](OC)[C@H]2O[C@@](O)(C(=O)C(=O)N3CCCC[C@H]3C(=O)O[C@H](/C(C)=C/[C@@H]3CC[C@@H](O)[C@H](OC)C3)[C@H](C)[C@@H](O)CC1=O)[C@H](C)C[C@@H]2OC", "AC50": "24500 nM [falling, single point]"}, {"smiles": "CC(C)C[C@H](NC(=O)CNC(=O)c1cc(Cl)ccc1Cl)B(O)O", "AC50": "54.9 nM [falling, full curve]"}, {"smiles": "Cc1noc2c1-c1ccccc1C(c1ccc(Cl)cc1)=N[C@H]2CC(N)=O", "AC50": "1380 nM [falling, full curve]"}, {"smiles": "CC(C)C[C@H](NC(=O)[C@@H](NC(=O)c1cccc(-c2ccccc2)n1)[C@@H](C)O)B(O)O", "AC50": "9.5 nM [falling, full curve]"}]}]}
